For three substances, binding results are on record in US20060084085A1, “Methods and compositions for modulating Bax-mediated apoptosis” (priority 2004, published 2006).

The chains behind the UniProt entries cited, without tags or fusion partners. Where a name states a change or a piece, a line headed by the entry shows the natural chain unless it says otherwise.
UniProt P12956: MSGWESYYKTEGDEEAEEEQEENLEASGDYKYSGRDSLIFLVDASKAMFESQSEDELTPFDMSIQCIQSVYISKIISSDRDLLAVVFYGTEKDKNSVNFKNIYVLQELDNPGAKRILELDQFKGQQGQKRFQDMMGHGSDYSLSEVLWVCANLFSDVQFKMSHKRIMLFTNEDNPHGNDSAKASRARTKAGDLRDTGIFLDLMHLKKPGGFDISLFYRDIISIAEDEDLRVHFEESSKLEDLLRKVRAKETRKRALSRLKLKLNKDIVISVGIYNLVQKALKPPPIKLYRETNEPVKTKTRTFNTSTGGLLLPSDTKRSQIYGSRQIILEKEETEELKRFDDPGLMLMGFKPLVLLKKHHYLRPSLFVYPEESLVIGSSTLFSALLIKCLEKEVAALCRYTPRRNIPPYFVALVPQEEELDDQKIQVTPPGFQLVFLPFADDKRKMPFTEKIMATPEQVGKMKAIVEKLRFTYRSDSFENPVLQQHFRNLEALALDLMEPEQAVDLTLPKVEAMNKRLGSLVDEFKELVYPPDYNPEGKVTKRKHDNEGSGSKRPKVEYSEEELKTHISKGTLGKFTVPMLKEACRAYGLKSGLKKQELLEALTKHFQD
UniProt Q07812: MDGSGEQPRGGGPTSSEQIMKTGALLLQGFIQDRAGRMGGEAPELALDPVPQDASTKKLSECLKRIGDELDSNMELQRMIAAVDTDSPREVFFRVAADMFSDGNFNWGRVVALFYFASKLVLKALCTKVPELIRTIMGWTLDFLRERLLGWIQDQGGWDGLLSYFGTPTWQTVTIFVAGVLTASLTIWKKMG
UniProt Q92831: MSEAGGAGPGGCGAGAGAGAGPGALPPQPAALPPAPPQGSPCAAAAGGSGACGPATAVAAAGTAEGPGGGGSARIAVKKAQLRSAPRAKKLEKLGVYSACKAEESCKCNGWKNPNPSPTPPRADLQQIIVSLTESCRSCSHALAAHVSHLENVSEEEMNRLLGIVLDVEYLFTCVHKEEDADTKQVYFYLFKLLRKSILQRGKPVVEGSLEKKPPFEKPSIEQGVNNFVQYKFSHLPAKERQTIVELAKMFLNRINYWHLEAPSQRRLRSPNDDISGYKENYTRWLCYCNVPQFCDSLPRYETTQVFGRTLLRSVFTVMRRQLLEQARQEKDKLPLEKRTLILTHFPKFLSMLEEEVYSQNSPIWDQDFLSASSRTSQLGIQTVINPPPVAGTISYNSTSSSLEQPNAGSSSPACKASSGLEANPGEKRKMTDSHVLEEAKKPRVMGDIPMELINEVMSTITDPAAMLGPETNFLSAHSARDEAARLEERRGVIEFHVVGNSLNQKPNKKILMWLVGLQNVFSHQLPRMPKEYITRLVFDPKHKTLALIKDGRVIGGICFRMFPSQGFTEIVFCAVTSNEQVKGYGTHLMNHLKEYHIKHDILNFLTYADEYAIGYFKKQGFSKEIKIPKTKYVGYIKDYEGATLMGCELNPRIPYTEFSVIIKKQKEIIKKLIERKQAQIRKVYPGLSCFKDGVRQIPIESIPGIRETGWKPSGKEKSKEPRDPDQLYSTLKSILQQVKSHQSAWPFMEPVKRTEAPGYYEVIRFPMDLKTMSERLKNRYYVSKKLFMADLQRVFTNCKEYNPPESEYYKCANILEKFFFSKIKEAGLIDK
UniProt Q92793: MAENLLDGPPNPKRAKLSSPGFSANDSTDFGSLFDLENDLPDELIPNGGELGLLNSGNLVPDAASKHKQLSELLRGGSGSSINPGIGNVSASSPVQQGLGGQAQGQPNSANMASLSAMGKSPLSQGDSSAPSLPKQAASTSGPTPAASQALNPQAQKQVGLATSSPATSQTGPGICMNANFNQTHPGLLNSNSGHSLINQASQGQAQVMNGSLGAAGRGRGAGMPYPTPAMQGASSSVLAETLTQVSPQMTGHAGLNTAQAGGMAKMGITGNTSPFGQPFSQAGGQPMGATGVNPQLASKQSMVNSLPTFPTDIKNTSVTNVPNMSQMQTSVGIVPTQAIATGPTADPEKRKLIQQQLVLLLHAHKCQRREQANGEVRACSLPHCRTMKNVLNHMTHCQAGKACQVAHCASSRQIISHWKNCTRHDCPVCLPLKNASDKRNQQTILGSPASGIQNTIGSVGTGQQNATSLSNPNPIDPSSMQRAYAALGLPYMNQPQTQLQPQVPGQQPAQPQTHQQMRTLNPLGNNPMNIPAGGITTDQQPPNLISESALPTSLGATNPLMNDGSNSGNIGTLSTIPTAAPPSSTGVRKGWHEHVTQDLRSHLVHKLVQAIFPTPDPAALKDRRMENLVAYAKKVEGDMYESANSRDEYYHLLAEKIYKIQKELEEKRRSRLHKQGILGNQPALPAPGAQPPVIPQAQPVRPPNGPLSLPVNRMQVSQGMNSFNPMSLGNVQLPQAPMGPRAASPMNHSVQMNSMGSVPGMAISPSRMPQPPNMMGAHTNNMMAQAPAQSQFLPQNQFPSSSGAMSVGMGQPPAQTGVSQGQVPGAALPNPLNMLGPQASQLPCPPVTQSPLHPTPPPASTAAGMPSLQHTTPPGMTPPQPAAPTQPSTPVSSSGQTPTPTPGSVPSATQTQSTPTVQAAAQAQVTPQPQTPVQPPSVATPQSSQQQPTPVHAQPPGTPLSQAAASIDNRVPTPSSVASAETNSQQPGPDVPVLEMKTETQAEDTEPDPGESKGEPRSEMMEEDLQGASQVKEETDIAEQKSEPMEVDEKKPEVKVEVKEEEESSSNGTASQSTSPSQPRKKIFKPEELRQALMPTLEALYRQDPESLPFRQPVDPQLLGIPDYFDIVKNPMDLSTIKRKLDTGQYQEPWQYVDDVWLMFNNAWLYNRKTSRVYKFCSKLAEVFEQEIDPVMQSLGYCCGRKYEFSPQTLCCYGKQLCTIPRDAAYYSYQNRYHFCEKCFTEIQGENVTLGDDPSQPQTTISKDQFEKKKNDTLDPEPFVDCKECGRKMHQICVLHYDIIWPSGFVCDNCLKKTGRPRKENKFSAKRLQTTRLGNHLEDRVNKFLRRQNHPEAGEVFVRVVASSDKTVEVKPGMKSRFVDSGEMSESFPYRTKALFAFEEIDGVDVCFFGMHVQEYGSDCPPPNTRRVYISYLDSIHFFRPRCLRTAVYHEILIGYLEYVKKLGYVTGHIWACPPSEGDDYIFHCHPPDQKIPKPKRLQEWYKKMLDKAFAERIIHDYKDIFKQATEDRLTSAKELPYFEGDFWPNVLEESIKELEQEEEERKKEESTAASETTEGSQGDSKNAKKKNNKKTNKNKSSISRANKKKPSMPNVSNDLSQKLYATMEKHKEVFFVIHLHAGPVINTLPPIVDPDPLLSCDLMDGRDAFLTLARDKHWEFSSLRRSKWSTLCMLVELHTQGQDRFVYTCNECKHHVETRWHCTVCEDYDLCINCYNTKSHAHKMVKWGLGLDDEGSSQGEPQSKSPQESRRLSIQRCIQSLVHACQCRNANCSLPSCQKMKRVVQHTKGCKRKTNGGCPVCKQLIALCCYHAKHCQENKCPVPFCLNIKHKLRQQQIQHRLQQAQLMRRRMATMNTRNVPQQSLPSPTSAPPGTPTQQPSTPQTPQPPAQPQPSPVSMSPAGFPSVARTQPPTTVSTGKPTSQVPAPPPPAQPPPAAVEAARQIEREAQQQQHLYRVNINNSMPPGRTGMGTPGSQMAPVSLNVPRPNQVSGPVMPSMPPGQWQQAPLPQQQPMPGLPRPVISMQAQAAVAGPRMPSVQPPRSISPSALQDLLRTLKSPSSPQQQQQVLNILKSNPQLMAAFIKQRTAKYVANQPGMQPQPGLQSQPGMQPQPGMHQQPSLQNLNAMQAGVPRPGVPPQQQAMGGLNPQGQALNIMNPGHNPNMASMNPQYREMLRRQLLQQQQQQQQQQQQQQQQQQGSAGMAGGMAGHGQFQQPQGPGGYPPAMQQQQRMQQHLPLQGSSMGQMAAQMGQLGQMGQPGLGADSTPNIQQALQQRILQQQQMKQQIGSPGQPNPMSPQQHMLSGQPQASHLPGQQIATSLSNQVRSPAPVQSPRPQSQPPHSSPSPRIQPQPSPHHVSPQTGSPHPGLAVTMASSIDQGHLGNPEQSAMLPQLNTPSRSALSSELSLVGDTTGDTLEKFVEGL

Assay [1] addresses human Ku70 (wild-type, full-length) (human) (UniProt P12956). The experiment in a line: co-immunoprecipitation, summary of results.
Assay [2] has the same target. The experiment in a line: co-immunoprecipitation from HeLa or 293 cells.
The target in assay [3] is Bax (Bcl-2 Associated X protein) (human) (UniProt Q07812). The experiment in a line: co-immunoprecipitation and reverse IP from 293T cells.
The target is the same in assay [4]. The experiment in a line: co-immunoprecipitation of endogenous Ku70 and Bax from 293T cells in Chaps buffer (DMSO control).
The target of assay [5] is human Ku70 (wild-type, full-length) (human) (UniProt P12956). The assay is described as follows: co-immunoprecipitation, retold.
Assay [6] has the same target. The assay is described as follows: co-immunoprecipitation from HeLa or 293 cells; not disrupted by ethidium bromide (50 µg/ml).

These are yes or no findings as the source states them, for the method shown. In cells and extracts the contact can be indirect. Some binding calls cover weakened binding; strength is not graded here.

Take “human p300/CBP-associated factor (PCAF) (from UniProt Q92831 1-832) (enzyme)”: the binding entry in assay [1] and in assay [2] was “binds” throughout.
With “human Ku70 (wild-type, full-length) (from UniProt P12956 1-609)”, the binding result in assay [3] and in assay [4] was “binds” in each case.
On to “human CREB-binding protein (CBP) (from UniProt Q92793 1-2442) (enzyme)”, for which the binding entry in assay [5], in assay [1] and in assay [6] was “binds” throughout.
